From article PMC8956512
Results are given in words; binding and its absence hold for the method and conditions named. Binding seen in cells or lysates may run through a third protein. Some entries that bind do so weakly or less than the wild type.

Chains of the proteins cited; added tags and fusions are not shown.
UniProt P09429: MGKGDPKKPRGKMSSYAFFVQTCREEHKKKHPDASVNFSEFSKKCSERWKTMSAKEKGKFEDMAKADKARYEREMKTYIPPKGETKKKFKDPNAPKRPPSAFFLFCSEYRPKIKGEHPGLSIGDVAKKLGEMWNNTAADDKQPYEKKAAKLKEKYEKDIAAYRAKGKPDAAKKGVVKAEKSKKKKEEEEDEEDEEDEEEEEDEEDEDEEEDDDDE
UniProt P51532: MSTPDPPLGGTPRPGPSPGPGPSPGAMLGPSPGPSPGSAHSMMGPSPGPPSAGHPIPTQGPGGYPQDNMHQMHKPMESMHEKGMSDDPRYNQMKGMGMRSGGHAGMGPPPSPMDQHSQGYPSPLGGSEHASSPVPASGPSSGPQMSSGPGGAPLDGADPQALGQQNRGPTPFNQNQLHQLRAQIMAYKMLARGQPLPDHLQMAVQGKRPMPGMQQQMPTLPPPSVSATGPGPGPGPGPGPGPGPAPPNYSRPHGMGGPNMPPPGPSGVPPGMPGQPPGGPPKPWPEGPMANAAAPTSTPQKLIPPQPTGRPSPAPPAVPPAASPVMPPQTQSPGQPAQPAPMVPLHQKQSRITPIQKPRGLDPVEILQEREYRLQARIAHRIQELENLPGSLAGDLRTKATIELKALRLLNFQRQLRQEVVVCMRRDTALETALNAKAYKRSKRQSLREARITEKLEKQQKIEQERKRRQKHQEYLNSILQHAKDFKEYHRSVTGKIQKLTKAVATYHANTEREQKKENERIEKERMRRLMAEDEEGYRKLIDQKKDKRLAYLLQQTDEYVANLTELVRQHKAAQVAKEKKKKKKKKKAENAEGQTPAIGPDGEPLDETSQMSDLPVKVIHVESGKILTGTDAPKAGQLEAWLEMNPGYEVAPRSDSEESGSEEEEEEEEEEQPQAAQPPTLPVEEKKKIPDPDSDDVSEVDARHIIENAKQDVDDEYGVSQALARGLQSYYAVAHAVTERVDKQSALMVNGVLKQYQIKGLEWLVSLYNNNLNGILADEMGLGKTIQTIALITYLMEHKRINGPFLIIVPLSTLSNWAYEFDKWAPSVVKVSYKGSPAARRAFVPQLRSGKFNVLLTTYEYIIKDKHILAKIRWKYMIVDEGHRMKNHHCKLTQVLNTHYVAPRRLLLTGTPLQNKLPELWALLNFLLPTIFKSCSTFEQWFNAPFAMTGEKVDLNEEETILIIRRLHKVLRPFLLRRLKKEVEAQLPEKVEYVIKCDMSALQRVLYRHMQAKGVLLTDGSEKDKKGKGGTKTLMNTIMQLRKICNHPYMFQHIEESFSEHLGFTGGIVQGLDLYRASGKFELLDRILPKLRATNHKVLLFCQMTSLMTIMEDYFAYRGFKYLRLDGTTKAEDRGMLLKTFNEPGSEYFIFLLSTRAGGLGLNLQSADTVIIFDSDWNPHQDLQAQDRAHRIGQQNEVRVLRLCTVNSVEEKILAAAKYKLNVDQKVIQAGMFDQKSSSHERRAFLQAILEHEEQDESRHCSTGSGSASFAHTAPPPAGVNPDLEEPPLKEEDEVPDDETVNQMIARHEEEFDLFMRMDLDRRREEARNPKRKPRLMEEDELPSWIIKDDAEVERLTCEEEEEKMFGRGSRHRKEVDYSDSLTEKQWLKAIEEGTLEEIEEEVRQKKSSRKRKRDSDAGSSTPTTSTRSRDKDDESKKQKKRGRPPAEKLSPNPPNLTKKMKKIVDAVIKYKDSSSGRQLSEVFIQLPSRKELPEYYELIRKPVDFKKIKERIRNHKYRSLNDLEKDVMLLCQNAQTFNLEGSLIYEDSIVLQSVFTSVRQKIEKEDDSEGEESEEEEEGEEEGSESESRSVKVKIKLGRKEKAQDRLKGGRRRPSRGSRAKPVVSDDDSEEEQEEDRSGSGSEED

Target: high mobility group box 1 (HMGB1) (human (endogenous in SiHa or HeLa cervical cancer cells)) (UniProt P09429)
Test: co-IP; HMGB1 immunoprecipitated (Protein A/G Plus Agarose Immunoprecipitation Kit), BRG1 detected by western blot; cervical cancer cells with LNMAS overexpression or LNMAS knockdown

binding: binds
Substance: BRG1, the core subunit of SWI/SNF complex (from UniProt P51532 1-1647)
